In the supplement of paper PMC10849652:
This is one part of the list.

Chains of the proteins cited; added tags and fusions are not shown. Lines headed by an entry give the natural chain unless they say otherwise; changes in a name come on top.
UniProt Q6I9Y2: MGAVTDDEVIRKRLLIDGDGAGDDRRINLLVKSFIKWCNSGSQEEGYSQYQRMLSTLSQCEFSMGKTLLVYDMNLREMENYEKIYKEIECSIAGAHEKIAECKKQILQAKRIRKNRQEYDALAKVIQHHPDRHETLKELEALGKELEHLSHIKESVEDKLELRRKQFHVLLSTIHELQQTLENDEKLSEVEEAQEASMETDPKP
UniProt P52888, whole entry, looked up: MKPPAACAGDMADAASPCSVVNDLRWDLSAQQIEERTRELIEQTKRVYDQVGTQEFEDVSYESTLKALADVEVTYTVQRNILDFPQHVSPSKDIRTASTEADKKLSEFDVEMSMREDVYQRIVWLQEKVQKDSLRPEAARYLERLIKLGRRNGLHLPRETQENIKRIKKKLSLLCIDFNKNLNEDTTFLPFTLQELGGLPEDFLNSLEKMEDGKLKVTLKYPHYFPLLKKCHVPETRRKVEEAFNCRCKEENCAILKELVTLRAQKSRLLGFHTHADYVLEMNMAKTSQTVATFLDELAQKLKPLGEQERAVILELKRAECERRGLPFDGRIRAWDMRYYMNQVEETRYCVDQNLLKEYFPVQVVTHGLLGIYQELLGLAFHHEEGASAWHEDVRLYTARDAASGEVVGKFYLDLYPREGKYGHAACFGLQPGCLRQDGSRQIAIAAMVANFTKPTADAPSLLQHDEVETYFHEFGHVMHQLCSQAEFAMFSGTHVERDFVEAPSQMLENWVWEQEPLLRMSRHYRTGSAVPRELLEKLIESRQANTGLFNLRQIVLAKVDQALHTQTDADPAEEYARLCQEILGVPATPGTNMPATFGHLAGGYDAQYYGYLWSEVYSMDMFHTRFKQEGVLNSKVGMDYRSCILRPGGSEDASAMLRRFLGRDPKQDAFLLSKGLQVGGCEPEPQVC
UniProt Q8TBQ9: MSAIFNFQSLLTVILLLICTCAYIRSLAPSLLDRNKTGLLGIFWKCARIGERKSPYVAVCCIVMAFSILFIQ
UniProt P17152: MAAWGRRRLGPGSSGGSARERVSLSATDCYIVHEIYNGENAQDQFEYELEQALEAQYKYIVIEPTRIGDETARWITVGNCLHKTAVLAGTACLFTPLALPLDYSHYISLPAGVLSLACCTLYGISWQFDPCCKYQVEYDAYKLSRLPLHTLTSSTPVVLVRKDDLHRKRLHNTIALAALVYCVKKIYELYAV
UniProt Q9Y5L4: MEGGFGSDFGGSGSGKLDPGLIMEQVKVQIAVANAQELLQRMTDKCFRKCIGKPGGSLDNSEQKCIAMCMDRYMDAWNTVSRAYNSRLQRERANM
UniProt Q9Y5J7: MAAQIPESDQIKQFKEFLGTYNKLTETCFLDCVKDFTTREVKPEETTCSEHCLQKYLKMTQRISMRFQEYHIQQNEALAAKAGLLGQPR
UniProt Q9NPL8: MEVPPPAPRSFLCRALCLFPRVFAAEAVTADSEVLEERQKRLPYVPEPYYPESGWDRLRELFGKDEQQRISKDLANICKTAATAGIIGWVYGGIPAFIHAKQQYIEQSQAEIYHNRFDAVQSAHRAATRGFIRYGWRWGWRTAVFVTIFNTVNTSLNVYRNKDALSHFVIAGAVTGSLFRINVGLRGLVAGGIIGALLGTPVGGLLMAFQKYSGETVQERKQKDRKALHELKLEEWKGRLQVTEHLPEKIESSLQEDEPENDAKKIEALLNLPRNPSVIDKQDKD
UniProt Q9BTF0: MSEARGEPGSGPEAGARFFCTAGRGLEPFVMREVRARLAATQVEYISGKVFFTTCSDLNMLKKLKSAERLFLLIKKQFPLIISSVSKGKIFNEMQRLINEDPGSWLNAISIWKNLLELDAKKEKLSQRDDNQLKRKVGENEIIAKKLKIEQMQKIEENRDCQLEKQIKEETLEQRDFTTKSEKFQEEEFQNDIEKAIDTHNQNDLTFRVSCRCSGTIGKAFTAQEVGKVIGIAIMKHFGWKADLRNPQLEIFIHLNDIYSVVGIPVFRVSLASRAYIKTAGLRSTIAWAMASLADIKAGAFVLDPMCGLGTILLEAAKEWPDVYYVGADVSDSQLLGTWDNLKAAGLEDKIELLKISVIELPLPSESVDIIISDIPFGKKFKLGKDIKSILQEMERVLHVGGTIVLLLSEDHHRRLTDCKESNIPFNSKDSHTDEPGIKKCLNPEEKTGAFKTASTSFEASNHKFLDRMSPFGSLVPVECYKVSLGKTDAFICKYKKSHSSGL
UniProt Q9Y5J9: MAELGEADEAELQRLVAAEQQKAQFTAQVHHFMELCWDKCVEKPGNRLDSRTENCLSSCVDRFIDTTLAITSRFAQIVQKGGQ
UniProt Q9P016: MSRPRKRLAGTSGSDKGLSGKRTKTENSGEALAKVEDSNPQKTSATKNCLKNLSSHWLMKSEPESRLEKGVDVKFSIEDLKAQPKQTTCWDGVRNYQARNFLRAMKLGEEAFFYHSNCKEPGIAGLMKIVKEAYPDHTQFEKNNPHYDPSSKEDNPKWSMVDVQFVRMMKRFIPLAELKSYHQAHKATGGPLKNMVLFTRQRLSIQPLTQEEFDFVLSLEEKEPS
UniProt Q7Z7N9: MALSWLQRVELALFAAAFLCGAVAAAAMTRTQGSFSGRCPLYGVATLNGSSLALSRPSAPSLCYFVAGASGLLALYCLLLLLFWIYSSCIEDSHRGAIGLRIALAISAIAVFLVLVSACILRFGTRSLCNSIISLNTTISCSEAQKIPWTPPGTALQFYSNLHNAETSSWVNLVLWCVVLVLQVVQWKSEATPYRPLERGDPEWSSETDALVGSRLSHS
UniProt Q9UM00: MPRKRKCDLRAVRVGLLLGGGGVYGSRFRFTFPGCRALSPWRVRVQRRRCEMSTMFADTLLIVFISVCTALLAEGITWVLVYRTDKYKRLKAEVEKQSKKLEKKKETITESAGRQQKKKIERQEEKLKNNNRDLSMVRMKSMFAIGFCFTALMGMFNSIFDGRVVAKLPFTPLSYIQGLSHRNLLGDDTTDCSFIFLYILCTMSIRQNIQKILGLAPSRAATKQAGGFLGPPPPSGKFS
UniProt Q9H7F4: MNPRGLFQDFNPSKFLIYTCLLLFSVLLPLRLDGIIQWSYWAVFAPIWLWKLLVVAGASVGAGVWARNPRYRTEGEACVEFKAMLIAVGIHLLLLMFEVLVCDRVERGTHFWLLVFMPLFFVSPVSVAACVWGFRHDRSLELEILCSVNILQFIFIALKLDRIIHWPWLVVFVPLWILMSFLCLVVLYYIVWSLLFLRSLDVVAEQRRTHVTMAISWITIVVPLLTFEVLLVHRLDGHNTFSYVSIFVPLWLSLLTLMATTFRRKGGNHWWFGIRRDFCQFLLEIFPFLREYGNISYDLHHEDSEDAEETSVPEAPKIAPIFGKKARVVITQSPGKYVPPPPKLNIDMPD
UniProt Q9Y490: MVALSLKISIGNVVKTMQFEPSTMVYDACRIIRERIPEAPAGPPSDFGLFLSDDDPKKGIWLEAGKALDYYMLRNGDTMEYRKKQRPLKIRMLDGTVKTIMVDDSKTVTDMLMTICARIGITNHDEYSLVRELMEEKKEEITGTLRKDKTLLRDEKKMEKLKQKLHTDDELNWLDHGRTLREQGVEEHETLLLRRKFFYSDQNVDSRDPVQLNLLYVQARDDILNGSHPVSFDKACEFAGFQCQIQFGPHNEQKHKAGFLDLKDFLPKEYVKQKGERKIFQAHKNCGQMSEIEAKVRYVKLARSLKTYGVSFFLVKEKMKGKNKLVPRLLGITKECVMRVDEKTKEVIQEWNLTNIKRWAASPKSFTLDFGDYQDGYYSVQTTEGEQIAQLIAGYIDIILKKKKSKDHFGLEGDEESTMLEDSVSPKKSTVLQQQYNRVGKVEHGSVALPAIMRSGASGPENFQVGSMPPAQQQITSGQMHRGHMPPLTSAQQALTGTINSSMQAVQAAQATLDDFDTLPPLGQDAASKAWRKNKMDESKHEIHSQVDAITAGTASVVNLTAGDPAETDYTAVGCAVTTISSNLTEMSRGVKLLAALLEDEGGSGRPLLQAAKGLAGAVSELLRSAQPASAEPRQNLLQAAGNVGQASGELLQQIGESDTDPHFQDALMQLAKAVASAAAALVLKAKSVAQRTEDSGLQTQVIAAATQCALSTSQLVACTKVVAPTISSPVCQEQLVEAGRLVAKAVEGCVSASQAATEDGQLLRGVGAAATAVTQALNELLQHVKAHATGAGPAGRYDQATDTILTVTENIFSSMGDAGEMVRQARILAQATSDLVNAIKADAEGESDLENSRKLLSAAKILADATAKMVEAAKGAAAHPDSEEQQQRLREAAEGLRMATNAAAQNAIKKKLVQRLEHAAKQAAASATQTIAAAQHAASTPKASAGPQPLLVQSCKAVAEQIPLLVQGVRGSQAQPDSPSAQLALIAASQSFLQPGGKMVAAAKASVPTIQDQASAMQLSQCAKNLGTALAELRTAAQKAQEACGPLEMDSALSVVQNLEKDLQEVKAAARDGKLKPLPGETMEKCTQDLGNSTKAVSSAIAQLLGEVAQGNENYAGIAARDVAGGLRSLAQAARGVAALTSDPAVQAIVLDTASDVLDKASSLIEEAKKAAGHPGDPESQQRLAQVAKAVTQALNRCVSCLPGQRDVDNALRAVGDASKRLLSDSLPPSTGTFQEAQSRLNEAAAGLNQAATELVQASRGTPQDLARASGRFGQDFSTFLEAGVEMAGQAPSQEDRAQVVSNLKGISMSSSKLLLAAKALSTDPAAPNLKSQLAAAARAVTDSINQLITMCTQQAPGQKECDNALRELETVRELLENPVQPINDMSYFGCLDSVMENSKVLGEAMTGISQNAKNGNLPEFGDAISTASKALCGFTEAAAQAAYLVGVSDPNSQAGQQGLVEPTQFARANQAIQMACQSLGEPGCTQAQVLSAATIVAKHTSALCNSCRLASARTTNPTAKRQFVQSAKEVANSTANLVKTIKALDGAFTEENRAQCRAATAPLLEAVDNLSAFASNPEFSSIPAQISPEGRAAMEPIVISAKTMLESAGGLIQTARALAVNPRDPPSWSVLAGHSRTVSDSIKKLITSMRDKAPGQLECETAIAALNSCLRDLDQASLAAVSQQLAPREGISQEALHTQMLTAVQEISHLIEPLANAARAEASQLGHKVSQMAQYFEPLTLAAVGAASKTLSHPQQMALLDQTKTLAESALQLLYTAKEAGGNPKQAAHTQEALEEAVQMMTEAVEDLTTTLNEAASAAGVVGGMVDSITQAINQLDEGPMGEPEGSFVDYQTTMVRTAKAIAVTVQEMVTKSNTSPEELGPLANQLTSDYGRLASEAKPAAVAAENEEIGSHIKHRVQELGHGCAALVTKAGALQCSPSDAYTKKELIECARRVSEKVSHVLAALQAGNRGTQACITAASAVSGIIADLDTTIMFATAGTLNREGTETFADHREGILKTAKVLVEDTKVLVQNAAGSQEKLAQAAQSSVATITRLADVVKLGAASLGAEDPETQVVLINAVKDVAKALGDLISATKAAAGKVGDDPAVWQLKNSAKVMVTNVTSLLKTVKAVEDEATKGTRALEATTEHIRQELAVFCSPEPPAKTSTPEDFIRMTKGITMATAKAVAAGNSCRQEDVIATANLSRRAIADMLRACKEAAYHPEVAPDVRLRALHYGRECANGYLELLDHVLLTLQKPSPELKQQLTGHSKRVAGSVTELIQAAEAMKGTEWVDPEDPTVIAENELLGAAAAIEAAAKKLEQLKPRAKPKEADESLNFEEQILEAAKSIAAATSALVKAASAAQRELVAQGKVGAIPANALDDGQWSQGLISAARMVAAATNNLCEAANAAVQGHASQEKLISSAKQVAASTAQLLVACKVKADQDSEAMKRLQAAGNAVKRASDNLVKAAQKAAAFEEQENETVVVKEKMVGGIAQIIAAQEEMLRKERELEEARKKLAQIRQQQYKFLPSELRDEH

Legend:
Assay in all cases: log2 fold change, soluble protein after heating vs DMSO (PISA); higher = thermal stabilisation; K562 lysate, 10 uM; active = over 0.2 and 3.5 SD of the protein, either way, in both replicates (recomputed)
vemurafenib = compound: CCCS(=O)(=O)Nc1ccc(F)c(C(=O)c2c[nH]c3ncc(-c4ccc(Cl)cc4)cc23)c1F [vemurafenib]
Method in brief: (§1)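 A 30 min treatment with 10 μM compound was applied to crude K562 extract at 1 mg/mL protein in PBS pH 7.4 with 1 mM MgCl2. Heating for 3 min spanned 48°C-58°C, after which aliquots were pooled, adjusted to 0.5% NP-40 at 4°C and spun at 21,000xg for 90 min. TMTpro 16plex LC-MS/MS of the supernatant, with channel sums equalised, gave values recorded as log-two fold change in thermal stability against solvent controls, from duplicates.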

[1] = compound: CCCS(=O)(=O)Nc1ccc(F)c(C(=O)c2c[nH]c3ncc(Cl)cc23)c1F
Method in brief: as §1

barasertib = compound: CCN(CCCOc1ccc2c(Nc3cc(CC(=O)Nc4cccc(F)c4)[nH]n3)ncnc2c1)CCOP(=O)(O)O [barasertib]
Method in brief: as §1

[2] = compound: CC[C@@H]1C(=O)N(C)c2cnc(Nc3ccc(C(=O)NC4CCN(C)CC4)cc3OC)nc2N1C1CCCC1
Method in brief: as §1

volasertib = compound: CC[C@@H]1C(=O)N(C)c2cnc(Nc3ccc(C(=O)N[C@H]4CC[C@H](N5CCN(CC6CC6)CC5)CC4)cc3OC)nc2N1C(C)C [volasertib]
Method in brief: as §1

[3] = compound: CCn1c(C(=O)N(C2CC2)C2CC2)cc2c3c(ncn3C)c(Nc3cc(C)n(C)n3)nc21
Method in brief: as §1

[4] = compound: CCn1cc(-c2ccnc3[nH]c(-c4cccc(CN(C)C)c4)cc23)c(-c2ccc(NC(=O)N(C)C)cc2)n1
Method in brief: as §1

[5] = compound: CN1CCC(CNc2ccc3ncc(-c4cccc(OC(F)(F)F)c4)n3n2)CC1
Method in brief: as §1

saracatinib = compound: CN1CCN(CCOc2cc(OC3CCOCC3)c3c(Nc4c(Cl)ccc5c4OCO5)ncnc3c2)CC1 [saracatinib]
Method in brief: as §1

sotrastaurin = compound: CN1CCN(c2nc(C3=C(c4c[nH]c5ccccc45)C(=O)NC3=O)c3ccccc3n2)CC1 [sotrastaurin]
Method in brief: as §1

Measured: log2 fold change

THOC7 (UniProt Q6I9Y2)
inactive: vemurafenib -0.038 | [1] 0.021 | barasertib 0.037 | [2] -0.02 | volasertib 0.029 | [3] 0.007 | [4] 0.014 | [5] -0.038 | saracatinib 0.01 | sotrastaurin 0.027

THOP1 (UniProt P52888)
inactive: vemurafenib -0.019 | [1] -0.001 | barasertib -0.004 | [2] 0.001 | volasertib 0.023 | [3] -0.013 | [4] -0.039 | [5] 0.044 | saracatinib -0.026 | sotrastaurin -0.012

TMEM167A (UniProt Q8TBQ9)
inactive: vemurafenib -0.009 | [1] 0.049 | barasertib 0.011 | [2] -0.029 | volasertib -0.001 | [3] 0.004 | [4] -0.162 | [5] 0.063 | saracatinib 0.002 | sotrastaurin -0.093

TMEM11 (UniProt P17152)
inactive: vemurafenib -0.045 | [1] 0.018 | barasertib 0.03 | [2] 0.086 | volasertib 0 | [3] 0.063 | [4] -0.075 | [5] 0.038 | saracatinib -0.043 | sotrastaurin -0.017

TIMM13 (UniProt Q9Y5L4)
inactive: vemurafenib -0.027 | [1] -0.026 | barasertib 0.011 | [2] 0.028 | volasertib 0.027 | [3] 0.063 | [4] 0 | [5] 0.029 | saracatinib -0.03 | sotrastaurin 0.018

TIMM9 (UniProt Q9Y5J7)
inactive: vemurafenib 0.034 | [1] -0.034 | barasertib 0.191 | [2] 0.004 | volasertib 0.09 | [3] 0.028 | [4] 0.087 | [5] -0.139 | saracatinib 0.004 | sotrastaurin -0.061

TIMMDC1 (UniProt Q9NPL8)
inactive: vemurafenib -0.076 | [1] -0.006 | barasertib 0.001 | [2] 0.074 | volasertib 0.029 | [3] 0.001 | [4] -0.023 | [5] -0.023 | saracatinib 0.005 | sotrastaurin -0.023

THUMPD2 (UniProt Q9BTF0)
inactive: vemurafenib -0.001 | [1] 0.025 | barasertib -0.006 | [2] 0.022 | volasertib -0.023 | [3] 0.006 | [4] -0.098 | [5] 0.089 | saracatinib 0.062 | sotrastaurin 0.054

TIMM8B (UniProt Q9Y5J9)
inactive: vemurafenib -0.035 | [1] -0.028 | barasertib 0.089 | [2] -0.01 | volasertib 0.047 | [3] 0.094 | [4] 0.157 | [5] -0.133 | saracatinib -0.052 | sotrastaurin -0.04

THYN1 (UniProt Q9P016)
inactive: vemurafenib -0.065 | [1] 0.003 | barasertib 0.012 | [2] -0.062 | volasertib -0.007 | [3] 0.037 | [4] 0.057 | [5] -0.079 | saracatinib -0.02 | sotrastaurin 0.015

Two successive entries already listed:
TIMM8B (UniProt Q9Y5J9)
inactive: vemurafenib -0.035 | [1] -0.028 | barasertib 0.089 | [2] -0.01 | volasertib 0.047 | [3] 0.094 | [4] 0.157 | [5] -0.133 | saracatinib -0.052 | sotrastaurin -0.04

THYN1 (UniProt Q9P016)
inactive: vemurafenib -0.065 | [1] 0.003 | barasertib 0.012 | [2] -0.062 | volasertib -0.007 | [3] 0.037 | [4] 0.057 | [5] -0.079 | saracatinib -0.02 | sotrastaurin 0.015

More results follow.

TMEM179B (UniProt Q7Z7N9)
inactive: vemurafenib 0.071 | [1] -0.009 | barasertib 0.014 | [2] 0.075 | volasertib -0.01 | [3] -0.031 | [4] 0.071 | [5] -0.046 | saracatinib 0.042 | sotrastaurin 0.082

TMCO1 (UniProt Q9UM00)
inactive: vemurafenib -0.02 | [1] -0.002 | barasertib 0.057 | [2] 0.085 | volasertib -0.012 | [3] 0.085 | [4] 0.058 | [5] -0.006 | saracatinib 0.026 | sotrastaurin 0.02

TMEM185B (UniProt Q9H7F4)
inactive: vemurafenib -0.148 | [1] 0.016 | barasertib -0.109 | [2] -0.089 | volasertib -0.076 | [3] 0.006 | [4] 0.091 | [5] -0.069 | saracatinib 0.08 | sotrastaurin -0.026

TLN1 (UniProt Q9Y490)
inactive: vemurafenib -0.02 | [1] 0.002 | barasertib -0.016 | [2] -0.021 | volasertib 0.006 | [3] 0.007 | [4] -0.025 | [5] 0.021 | saracatinib 0.003 | sotrastaurin -0.011
